Source: article PMC5514938

The chains behind the UniProt entries cited, without tags or fusion partners.
UniProt Q8R4B8: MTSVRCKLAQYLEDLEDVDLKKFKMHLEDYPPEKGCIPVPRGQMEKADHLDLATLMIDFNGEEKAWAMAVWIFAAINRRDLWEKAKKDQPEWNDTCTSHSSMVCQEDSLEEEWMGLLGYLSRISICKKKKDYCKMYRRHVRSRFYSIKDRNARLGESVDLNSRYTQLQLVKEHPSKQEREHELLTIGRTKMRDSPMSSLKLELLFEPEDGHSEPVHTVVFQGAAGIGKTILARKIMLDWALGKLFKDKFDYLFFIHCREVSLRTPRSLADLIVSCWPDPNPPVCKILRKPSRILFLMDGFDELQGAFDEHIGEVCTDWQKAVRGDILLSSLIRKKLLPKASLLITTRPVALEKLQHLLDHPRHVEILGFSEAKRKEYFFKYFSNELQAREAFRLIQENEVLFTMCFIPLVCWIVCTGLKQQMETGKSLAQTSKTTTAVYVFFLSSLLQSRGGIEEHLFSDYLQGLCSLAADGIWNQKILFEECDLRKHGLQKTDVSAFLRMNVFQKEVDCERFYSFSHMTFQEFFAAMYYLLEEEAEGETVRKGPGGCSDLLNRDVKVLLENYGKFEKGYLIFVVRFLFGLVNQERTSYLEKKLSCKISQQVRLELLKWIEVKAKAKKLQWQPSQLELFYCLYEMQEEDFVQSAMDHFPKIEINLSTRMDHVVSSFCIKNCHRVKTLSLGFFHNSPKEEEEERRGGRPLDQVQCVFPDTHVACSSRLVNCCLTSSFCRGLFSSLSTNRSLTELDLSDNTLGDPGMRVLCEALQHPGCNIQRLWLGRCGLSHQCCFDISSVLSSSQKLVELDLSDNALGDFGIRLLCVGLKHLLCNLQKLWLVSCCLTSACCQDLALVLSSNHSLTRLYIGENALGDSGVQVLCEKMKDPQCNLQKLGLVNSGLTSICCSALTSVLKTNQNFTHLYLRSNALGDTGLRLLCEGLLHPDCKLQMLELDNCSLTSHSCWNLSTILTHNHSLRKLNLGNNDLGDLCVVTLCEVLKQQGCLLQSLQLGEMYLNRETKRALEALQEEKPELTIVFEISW

Biological target: NACHT, LRR, and PYD domains-containing protein 3 (mouse (endogenous in Kupffer cells)) (UniProt Q8R4B8)
Assay: affinity purification with mass spectrometry; bands cut from the Coomassie-stained gel of the anti-NLRP3 Co-IP of Kupffer cell lysate, trypsin digest, nano-LC-MS/MS (Q-Exactive, Maxquant)

- binding: binds
B1: Thioredoxin-interacting protein (protein, UniProt Q8BG60 1-397)
chain: MVMFKKIKSFEVVFNDPEKVYGSGEKVAGRVIVEVCEVTRVKAVRILACGVAKVLWMQGSQQCKQTLDYLRYEDTLLLEEQPTAGENEMVIMRPGNKYEYKFGFELPQGPLGTSFKGKYGCVDYWVKAFLDRPSQPTQEAKKNFEVMDLVDVNTPDLMAPVSAKKEKKVSCMFIPDGRVSVSARIDRKGFCEGDDISIHADFENTCSRIVVPKAAIVARHTYLANGQTKVFTQKLSSVRGNHIISGTCASWRGKSLRVQKIRPSILGCNILKVEYSLLIYVSVPGSKKVILDLPLVIGSRSGLSSRTSSMASRTSSEMSWIDLNIPDTPEAPPCYMDIIPEDHRLESPTTPLLDDVDDSQDSPIFMYAPEFQFMPPPTYTEVDPCVLNNNNNNNNVQ

Results are given in words; binding and its absence hold for the method and conditions named. In cells and extracts the contact can be indirect. Here binding means that the protein was enriched with, or labelled near, the bait; the list need not be complete.
